According to PMC10313121:
These are yes or no findings as the source states them, for the method shown. In cells and extracts the contact can be indirect. Binding can be weak; no strength is given.

Chains of the proteins cited; added tags and fusions are not shown. Lines headed by an entry give the natural chain unless they say otherwise; changes in a name come on top.
UniProt Q13153: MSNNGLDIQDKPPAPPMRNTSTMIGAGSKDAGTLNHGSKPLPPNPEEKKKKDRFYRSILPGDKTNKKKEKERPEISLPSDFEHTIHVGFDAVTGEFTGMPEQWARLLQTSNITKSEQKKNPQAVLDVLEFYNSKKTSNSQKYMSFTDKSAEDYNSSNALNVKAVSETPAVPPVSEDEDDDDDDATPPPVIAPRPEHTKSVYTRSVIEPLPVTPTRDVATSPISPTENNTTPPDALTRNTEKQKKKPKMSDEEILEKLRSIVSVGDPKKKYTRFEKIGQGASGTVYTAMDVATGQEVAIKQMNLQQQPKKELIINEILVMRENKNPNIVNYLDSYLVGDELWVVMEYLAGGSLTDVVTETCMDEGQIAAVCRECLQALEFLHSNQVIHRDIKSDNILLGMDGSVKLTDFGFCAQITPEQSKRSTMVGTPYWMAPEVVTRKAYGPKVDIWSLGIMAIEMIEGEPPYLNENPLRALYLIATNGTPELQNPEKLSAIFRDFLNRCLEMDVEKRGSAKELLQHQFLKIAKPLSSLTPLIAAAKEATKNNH
UniProt P60953: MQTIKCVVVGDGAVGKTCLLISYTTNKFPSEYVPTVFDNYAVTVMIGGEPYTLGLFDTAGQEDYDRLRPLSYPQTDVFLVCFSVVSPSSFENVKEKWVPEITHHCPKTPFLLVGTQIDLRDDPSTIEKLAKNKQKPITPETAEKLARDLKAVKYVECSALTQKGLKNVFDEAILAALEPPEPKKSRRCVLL

Target: GST-p21-binding domain of PAK1 (UniProt Q13153)
Assay: pull-down; GST-p21-binding domain of PAK1 on glutathione-Sepharose incubated with lysates of PMA-differentiated adherent THP-1 macrophages treated with EHop-016 (0-4000 nM) or MBQ-167 (0-500 nM) for 24 hrs; pulldowns Western blotted with a pan Rac (1-3) or Cdc42 antibody; only the target purified

binding: binds
Substance: Cdc42 (active, GTP bound) (from UniProt P60953 1-191)
